The source of these data is article PMC2749441.

By UniProt entry, the sequences of proteins in these tests, tags left out. Residues count along the entry.
UniProt Q9QUG3, residues 26-155: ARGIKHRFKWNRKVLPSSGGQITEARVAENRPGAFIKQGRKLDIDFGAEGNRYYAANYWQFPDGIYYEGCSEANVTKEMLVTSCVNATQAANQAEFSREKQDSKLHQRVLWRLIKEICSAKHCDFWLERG
UniProt P14211, residues 18-416: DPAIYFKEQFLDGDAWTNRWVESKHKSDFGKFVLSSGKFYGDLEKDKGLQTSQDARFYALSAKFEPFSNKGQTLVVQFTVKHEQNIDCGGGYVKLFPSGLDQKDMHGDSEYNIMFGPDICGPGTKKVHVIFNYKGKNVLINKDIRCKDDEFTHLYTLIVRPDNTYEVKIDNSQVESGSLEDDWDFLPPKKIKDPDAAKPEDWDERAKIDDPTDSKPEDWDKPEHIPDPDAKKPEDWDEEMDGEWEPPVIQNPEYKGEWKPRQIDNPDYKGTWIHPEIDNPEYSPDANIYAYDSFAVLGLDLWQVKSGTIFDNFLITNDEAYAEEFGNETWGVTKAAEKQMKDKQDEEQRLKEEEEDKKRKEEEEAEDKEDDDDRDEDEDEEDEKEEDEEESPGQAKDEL
UniProt P29391: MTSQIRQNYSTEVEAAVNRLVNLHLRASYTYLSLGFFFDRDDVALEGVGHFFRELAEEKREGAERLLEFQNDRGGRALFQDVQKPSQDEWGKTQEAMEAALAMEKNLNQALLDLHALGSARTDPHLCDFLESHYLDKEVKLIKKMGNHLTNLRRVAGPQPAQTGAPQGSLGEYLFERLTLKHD
UniProt P39688: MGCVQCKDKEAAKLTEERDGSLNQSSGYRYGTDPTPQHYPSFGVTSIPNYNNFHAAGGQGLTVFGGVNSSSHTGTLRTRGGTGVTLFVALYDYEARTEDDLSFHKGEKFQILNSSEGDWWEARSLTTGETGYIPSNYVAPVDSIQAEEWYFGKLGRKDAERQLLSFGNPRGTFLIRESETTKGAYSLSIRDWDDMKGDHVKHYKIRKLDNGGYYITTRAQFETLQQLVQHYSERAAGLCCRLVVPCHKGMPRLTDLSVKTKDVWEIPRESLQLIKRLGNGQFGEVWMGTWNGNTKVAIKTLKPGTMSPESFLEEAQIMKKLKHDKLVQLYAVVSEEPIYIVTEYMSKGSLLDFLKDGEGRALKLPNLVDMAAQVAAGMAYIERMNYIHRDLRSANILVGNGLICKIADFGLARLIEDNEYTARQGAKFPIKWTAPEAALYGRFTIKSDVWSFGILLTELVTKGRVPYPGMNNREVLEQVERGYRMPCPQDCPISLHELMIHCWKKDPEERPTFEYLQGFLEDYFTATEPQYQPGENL
UniProt P16045: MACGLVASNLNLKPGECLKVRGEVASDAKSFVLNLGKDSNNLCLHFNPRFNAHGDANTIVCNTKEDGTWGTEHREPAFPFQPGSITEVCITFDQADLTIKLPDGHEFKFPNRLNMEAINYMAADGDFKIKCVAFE
UniProt P06837: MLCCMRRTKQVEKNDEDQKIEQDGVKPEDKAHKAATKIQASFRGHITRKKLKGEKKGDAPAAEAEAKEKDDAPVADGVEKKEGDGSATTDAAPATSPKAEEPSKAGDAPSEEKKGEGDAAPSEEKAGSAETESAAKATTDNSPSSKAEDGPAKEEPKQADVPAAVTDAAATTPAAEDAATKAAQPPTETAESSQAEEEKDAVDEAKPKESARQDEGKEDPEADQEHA
UniProt P08752: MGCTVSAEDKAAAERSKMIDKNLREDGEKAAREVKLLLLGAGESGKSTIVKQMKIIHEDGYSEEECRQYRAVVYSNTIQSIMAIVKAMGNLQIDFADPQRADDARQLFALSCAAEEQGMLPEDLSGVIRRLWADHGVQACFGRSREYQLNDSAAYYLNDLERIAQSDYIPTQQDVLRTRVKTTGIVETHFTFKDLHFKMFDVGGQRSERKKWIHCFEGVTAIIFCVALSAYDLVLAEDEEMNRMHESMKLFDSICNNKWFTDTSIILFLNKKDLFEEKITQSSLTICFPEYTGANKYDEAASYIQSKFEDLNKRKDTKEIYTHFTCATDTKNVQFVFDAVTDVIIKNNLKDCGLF
UniProt P20029, residues 20-655: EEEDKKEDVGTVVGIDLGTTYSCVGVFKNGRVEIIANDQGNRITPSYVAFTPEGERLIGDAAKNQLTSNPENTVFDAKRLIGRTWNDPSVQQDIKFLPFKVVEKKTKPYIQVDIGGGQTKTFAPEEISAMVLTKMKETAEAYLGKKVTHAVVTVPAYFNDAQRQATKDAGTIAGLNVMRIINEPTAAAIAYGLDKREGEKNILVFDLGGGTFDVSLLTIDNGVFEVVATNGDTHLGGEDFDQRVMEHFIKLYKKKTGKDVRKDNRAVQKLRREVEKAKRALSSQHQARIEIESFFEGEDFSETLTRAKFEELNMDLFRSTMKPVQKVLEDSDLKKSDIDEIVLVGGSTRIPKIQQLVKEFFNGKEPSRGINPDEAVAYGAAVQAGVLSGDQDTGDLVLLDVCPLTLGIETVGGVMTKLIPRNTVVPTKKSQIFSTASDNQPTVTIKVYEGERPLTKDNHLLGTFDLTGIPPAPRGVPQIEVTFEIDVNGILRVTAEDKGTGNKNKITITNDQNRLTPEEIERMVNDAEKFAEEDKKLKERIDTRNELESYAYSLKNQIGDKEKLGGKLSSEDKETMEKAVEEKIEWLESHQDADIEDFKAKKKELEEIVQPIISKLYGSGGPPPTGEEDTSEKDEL
UniProt P08113, residues 22-802: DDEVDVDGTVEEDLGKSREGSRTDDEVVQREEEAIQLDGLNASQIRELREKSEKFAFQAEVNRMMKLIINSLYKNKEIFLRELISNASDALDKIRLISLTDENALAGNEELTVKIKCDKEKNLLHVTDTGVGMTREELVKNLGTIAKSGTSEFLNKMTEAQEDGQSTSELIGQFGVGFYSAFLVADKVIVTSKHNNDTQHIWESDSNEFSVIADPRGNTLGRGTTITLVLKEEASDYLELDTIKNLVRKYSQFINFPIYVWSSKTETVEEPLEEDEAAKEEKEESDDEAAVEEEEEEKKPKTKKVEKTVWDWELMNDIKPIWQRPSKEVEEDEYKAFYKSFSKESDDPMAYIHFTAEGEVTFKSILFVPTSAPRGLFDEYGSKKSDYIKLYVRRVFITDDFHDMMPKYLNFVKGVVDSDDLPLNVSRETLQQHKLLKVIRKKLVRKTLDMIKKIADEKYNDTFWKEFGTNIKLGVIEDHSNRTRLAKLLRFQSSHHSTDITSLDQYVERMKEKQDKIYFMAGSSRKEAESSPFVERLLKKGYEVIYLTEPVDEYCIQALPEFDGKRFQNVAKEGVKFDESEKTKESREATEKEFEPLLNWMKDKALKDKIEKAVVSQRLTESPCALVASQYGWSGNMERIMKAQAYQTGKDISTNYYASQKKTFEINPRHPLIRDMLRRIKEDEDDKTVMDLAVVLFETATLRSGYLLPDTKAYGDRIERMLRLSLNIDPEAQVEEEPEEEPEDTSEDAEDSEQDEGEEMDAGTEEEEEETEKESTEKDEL
UniProt P24369, residues 34-216: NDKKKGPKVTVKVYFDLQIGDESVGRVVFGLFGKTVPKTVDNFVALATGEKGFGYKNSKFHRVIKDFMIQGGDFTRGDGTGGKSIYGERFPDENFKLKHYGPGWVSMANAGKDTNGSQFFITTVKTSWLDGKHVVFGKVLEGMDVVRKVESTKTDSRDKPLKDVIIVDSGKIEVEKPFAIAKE
UniProt P27773, residues 25-505: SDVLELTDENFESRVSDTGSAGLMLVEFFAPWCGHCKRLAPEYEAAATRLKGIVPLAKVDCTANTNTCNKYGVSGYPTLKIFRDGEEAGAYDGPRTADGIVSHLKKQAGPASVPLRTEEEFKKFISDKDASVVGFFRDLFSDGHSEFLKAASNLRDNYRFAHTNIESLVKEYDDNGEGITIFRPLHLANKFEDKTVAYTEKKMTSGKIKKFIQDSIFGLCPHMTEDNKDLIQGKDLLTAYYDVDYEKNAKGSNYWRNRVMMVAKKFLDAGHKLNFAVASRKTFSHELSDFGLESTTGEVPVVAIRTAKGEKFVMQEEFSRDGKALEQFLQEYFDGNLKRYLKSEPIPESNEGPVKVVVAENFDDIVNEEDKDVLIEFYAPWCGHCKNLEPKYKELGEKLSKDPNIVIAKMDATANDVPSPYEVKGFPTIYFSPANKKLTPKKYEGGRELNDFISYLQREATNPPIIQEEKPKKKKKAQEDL
UniProt P08003, residues 21-638: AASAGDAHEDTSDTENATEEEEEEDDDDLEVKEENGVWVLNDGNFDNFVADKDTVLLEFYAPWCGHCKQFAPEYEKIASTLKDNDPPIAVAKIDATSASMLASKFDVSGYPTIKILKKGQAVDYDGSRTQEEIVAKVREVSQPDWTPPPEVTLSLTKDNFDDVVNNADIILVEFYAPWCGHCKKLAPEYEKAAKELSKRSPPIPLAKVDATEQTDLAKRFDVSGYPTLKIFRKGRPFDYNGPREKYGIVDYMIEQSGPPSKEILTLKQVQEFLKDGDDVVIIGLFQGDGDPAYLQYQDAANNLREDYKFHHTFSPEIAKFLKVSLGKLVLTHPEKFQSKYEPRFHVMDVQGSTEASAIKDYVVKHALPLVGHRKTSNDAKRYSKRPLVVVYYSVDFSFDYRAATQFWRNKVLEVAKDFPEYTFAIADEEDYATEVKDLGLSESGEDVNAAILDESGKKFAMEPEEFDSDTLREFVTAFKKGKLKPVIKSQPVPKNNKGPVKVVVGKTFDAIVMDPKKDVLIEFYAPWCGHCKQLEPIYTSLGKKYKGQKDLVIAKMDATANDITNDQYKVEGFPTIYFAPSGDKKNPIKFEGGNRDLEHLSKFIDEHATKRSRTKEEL
UniProt P09103, residues 20-509: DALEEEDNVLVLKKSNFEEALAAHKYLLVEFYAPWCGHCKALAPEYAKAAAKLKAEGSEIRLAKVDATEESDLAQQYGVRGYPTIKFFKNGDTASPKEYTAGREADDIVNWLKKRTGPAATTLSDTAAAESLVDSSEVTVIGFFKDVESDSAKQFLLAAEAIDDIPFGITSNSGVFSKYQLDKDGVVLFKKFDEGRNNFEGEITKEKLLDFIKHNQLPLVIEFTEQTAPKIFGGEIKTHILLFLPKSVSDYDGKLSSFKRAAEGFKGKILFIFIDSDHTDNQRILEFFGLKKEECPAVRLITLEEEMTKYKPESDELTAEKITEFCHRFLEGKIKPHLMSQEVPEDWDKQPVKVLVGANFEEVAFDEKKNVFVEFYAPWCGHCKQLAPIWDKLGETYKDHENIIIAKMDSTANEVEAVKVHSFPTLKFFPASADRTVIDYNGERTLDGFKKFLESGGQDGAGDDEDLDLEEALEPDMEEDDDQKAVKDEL
UniProt P97370: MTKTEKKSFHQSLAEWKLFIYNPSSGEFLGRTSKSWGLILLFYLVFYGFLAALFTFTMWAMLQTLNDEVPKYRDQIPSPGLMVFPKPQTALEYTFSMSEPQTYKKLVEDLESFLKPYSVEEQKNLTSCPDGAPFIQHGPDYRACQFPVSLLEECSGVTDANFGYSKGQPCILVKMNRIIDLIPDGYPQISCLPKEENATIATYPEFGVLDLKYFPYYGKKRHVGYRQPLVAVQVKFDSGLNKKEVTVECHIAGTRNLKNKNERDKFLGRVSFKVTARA
UniProt P10852: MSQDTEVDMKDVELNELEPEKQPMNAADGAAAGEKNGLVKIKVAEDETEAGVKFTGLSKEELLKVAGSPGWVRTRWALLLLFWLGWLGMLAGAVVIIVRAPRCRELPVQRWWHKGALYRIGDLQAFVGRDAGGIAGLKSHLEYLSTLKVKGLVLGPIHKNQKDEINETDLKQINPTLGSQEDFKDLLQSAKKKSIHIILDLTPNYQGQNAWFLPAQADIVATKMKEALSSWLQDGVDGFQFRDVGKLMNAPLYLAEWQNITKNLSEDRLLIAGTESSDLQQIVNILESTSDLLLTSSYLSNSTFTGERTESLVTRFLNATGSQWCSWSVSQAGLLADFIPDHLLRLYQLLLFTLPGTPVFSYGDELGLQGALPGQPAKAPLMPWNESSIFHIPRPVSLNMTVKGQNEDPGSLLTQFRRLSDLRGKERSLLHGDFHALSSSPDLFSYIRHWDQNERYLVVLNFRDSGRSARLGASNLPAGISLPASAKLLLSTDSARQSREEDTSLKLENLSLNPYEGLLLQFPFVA
UniProt Q9R0Q3, residues 21-201: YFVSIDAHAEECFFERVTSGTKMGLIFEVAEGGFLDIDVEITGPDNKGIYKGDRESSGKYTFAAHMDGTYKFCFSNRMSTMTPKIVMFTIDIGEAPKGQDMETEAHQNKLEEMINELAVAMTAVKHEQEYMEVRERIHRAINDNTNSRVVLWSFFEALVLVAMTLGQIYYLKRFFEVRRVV

These are yes or no findings as the source states them, for the method shown. In cells and extracts the contact can be indirect. A yes stands for co-enrichment or nearness to the bait. Other partners may have been found.

For the assay, the target named is FLAG-Dpl (mouse) (UniProt Q9QUG3). Briefly: affinity purification with mass spectrom.

Take “calreticulin (from UniProt P14211 18-416)”: the binding entry is “binds”. In the case of “ferritin light chain 1 (from UniProt P29391 1-183)” it was “binds”. “fyn proto-oncogene (from UniProt P39688 1-537)”: the binding entry was “binds”. As for “galectin-1 (lectin, galactose binding, soluble 1) (from UniProt P16045 1-135)”, the entry is “binds”. For the molecule “growth associated protein 43 (neuromodulin) (from UniProt P06837 1-227)”, the binding result is “binds”. Take “guanine nucleotide binding protein, alpha inhibiting 2 (from UniProt P08752 1-355)”: the binding entry was “binds”. As for “heat shock protein 5 (from UniProt P20029 20-655)”, the binding entry is “binds”.

As for “heat shock protein 90, beta (Grp94), member 1 (endoplasmin) (from UniProt P08113 22-802)”, the binding entry was “binds”. As for “integrin beta 1 (from UniProt P09055 21-798)”, the entry is “binds”.

“neural cell adhesion molecule 1 (NCAM) (from UniProt P13595 20-1115)”: the binding entry is given as “binds”. For the molecule “neuropilin 1 (from UniProt P97333 22-923)”, the binding entry is “binds”. Take “peptidylprolyl isomerase B (from UniProt P24369 34-216)”: the binding result is reported as “binds”.

Take “protein disulfide isomerase associated 3 (from UniProt P27773 25-505)”: the binding entry is “binds”. As for “protein disulfide isomerase associated 4 (from UniProt P08003 21-638)”, the entry is “binds”; as for “protein disulfide-isomerase (prolyl 4-hydroxylase beta) (from UniProt P09103 20-509)”, “binds”.

For the molecule “sodium/potassium transporting ATPase beta 3 polypeptide (from UniProt P97370 1-278)”, the binding result was “binds”. On to “solute carrier family 3, member 2 (CD98) (from UniProt P10852 1-526)”, for which the binding entry was “binds”. As for “transmembrane emp24 domain trafficking protein 2 (from UniProt Q9R0Q3 21-201)”, the entry is “binds”.

B1: immunoglobulin superfamily, member 8 (protein, UniProt Q8R366 26-611)
chain: RQVHVPRGPLYRVAGTAVSISCNVSDYEGPAQQDFEWFMYRPEAPATSLGIVSTKDSQFSYAVFGPRVASGDLQVQRLKGDSVVLKIARLQAQDSGFYECYTPSTDTQYLGNYSAKVELRVLPDELQVSAAPPGPRGRQAATSPSRLTVHEGQELALGCLAQTKTKKHTHLSVSFGRAIPEAPVGRATLQEVVGLRSDMAVEAGAPYAERLASGELRLSKEGTDRYRMVVGGAQAGDSGTYHCTAAEWIQDPDGSWVQVAEKRAVLAHVDVQTLSSQLAVTVGPGERRIGPGEPLELLCNVSGALPPPGRHAAYSVGWEMAPAGAPGPGRLVAQLDTEGIGSLGPGYEDRHIAMEKVASRTYRLRLEAARPADAGTYRCLAKAYVRGSGTRLREAASARSRPLPVHVREEGVVLEAVAWLAGGTVYRGETASLLCNISVRGGPPGLRLAASWWVERPEEGELSSGPAQLVGGVGQDGVAELGVRPGGGPVSVELVGPRSHRLRLHGLGPEDEGIYHCAPSAWVQHADYSWYQAGSARSGPVTVYPYTHAVDTLFVPLLVGTGVALVTGASVLATITCCFMKRMRKR
Take B1: the binding entry is recorded as “binds”.

B2: ectonucleotide pyrophosphatase/phosphodiesterase 1 (protein, UniProt P06802 1-906)
chain: MERDGDQAGHGPRHGSAGNGRELESPAAASLLAPMDLGEEPLEKAERARPAKDPNTYKVLSLVLSVCVLTTILGCIFGLKPSCAKEVKSCKGRCFERTFSNCRCDAACVSLGNCCLDFQETCVEPTHIWTCNKFRCGEKRLSRFVCSCADDCKTHNDCCINYSSVCQDKKSWVEETCESIDTPECPAEFESPPTLLFSLDGFRAEYLHTWGGLLPVISKLKNCGTYTKNMRPMYPTKTFPNHYSIVTGLYPESHGIIDNKMYDPKMNASFSLKSKEKFNPLWYKGQPIWVTANHQEVKSGTYFWPGSDVEIDGILPDIYKVYNGSVPFEERILAVLEWLQLPSHERPHFYTLYLEEPDSSGHSHGPVSSEVIKALQKVDRLVGMLMDGLKDLGLDKCLNLILISDHGMEQGSCKKYVYLNKYLGDVNNVKVVYGPAARLRPTDVPETYYSFNYEALAKNLSCREPNQHFRPYLKPFLPKRLHFAKSDRIEPLTFYLDPQWQLALNPSERKYCGSGFHGSDNLFSNMQALFIGYGPAFKHGAEVDSFENIEVYNLMCDLLGLIPAPNNGSHGSLNHLLKKPIYNPSHPKEEGFLSQCPIKSTSNDLGCTCDPWIVPIKDFEKQLNLTTEDVDDIYHMTVPYGRPRILLKQHHVCLLQQQQFLTGYSLDLLMPLWASYTFLRNDQFSRDDFSNCLYQDLRIPLSPVHKCSYYKSNSKLSYGFLTPPRLNRVSNHIYSEALLTSNIVPMYQSFQVIWHYLHDTLLQRYAHERNGINVVSGPVFDFDYDGRYDSLEILKQNSRVIRSQEILIPTHFFIVLTSCKQLSETPLECSALESSAYILPHRPDNIESCTHGKRESSWVEELLTLHRARVTDVELITGLSFYQDRQESVSELLRLKTHLPIFSQED
Turning to B2, the binding entry is given as “binds”.

B3: guanosine diphosphate (GDP) dissociation inhibitor 2 (protein, UniProt Q61598 1-445)
chain: MNEEYDVIVLGTGLTECILSGIMSVNGKKVLHMDQNPYYGGESASITPLEDLYKRFKLPGQPPASMGRGRDWNVDLIPKFLMANGQLVKMLLFTEVTRYMDFKVIEGSFVYKGGKIYKVPSTEAEALASSLMGLFEKRRFRKFLVYVANFDEKDPRTFEGVDPKKTSMRDVYKKFDLGQDVIDFTGHSLALYRTDDYLDQPCCETINRIKLYSESLARYGKSPYLYPLYGLGELPQGFARLSAIYGGTYMLNKPIEEIIVQNGKVVGVKSEGEIARCKQLICDPSYVKDRVEKVGQVIRVICILSHPIKNTNDANSCQIIIPQNQVNRKSDIYVCMISFAHNVAAQGKYIAIVSTTVETKEPEKEIRPALELLEPIEQKFVSISDLFVPKDLGTDSQIFISRAYDATTHFETTCDDIKDIYKRMTGSEFDFEEMKRKKNDIYGED
As to B3, the binding result is listed as “binds”.

B4: integrin alpha 6 (protein, UniProt Q61739 24-1091)
chain: FNLDTREDNVIRKSGDPGSLFGFSLAMHWQLQPEDKRLLLVGAPRAEALPLQRANRTGGLYSCDITSRGPCTRIEFDNDADPMSESKEDQWMGVTVQSQGPGGKVVTCAHRYEKRQHVNTKQESRDIFGRCYVLSQNLRIEDDMDGGDWSFCDGRLRGHEKFGSCQQGVAATFTKDFHYIVFGAPGTYNWKGIVRVEQKNNTFFDMNIFEDGPYEVGGETDHDESLVPVPANSYLGFSLDSGKGIVSKDDITFVSGAPRANHSGAVVLLKRDMKSAHLLPEYIFDGEGLASSFGYDVAVVDLNADGWQDIVIGAPQYFDRDGEVGGAVYVYINQQGKWSNVKPIRLNGTKDSMFGISVKNIGDINQDGYPDIAVGAPYDDLGKVFIYHGSPTGIITKPTQVLEGTSPYFGYSIAGNMDLDRNSYPDLAVGSLSDSVTIFRSRPVINILKTITVTPNRIDLRQKSMCGSPSGICLKVKACFEYTAKPSGYNPPISILGILEAEKERRKSGLSSRVQFRNQGSEPKYTQELTLNRQKQRACMEETLWLQENIRDKLRPIPITASVEIQEPSSRRRVNSLPEVLPILNSNEAKTVQTDVHFLKEGCGDDNVCNSNLKLEYKFGTREGNQDKFSYLPIQKGIPELVLKDQKDIALEITVTNSPSDPRNPRKDGDDAHEAKLIATFPDTLTYSAYRELRAFPEKQLSCVANQNGSQADCELGNPFKRNSSVTFYLILSTTEVTFDTTDLDINLKLETTSNQDNLAPITAKAKVVIELLLSVSGVAKPSQVYFGGTVVGEQAMKSEDEVGSLIEYEFRVINLGKPLKNLGTATLNIQWPKEISNGKWLLYLMKVESKGLEQIVCEPHNEINYLKLKESHNSRKKRELPEKQIDDSRKFSLFPERKYQTLNCSVNVRCVNIRCPLRGLDSKASLVLRSRLWNSTFLEEYSKLNYLDILLRASIDVTAAAQNIKLPHAGTQVRVTVFPSKTVAQYSGVAWWIILLAVLAGILMLALLVFLLWKCGFFKRSRYDDSIPRYHAVRIRKEEREIKDEKHMDNLEKKQWITKWNENESYS
In the case of B4, the binding entry was “binds”.

B5: integrin alpha V (protein, UniProt P43406 31-1044)
chain: FNLDVESPAEYAGPEGSYFGFAVDFFEPSTSSRMFLLVGAPKANTTQPGIVEGGQVLKCECSSSRRCQPIEFDSTGNRDYAKDDPLEFKSHQWFGASVRSKQDKILACAPLYHWRTEMKQEREPVGTCFLQDGTKTVEYAPCRSKNIDADGQGFCQGGFSIDFTKADRVLLGGPGSFYWQGQLISDQVAEIISKYDPNVYSIKYNNQLATRTAQAIFDDSYLGYSVAVGDFNGDGIEDFVSGVPRAARTLGMVYIYDGKNMSSLHNFTGEQMAAYFGFSVAATDINGDDYADVFIGAPLFMDRGSDGKLQEVGQVSVSLQRAVGDFQTTKLNGFEVFARFGSAIAPLGDLDQDGFNDIAIAAPYGGEDKKGLVYIFNGRSTGLNSVPSQILEGQWAAQSMPPSFGYSMKGATDVDRNGYPDLVVGAFGVDRAVLYRARPVVTVNAGLEVYPSILNQDNKICPLPGTALKVSCFNVRFCLKADGKGTLPRKLHFQVELLLDKLKQKGAIRRALFLHNRSPVHSKTMTVFRGGQMQCEELVAYLRDESEFRDKLTPITIFMEYRLDQRTAADATGLQPILNQFTPANVSRQAHILLDCGEDNVCKPKLEVSVNSDQKKIYIGDDNPLTLTVKAQNQGEGAYEAELIVSIPPQADFIGVVRNNEALARLSCAFKTENQTRQVVCDLGNPMKAGTQLLAGLRFSVHQQSEMDTSVKFDLKIQSSNSFDNVSPVVSYKVDLAVLAAVEIRGVSSPDHIFLPIPNWEYKENPETEEDVGPIVQHIYELRNNGPSSFSKAILNLQWPYKYNNNTLLYILHYDIDGPMNCTADTEINPLRIKTPEKNDTAAAGQGERNHLITKRDLTLREGDVHTLGCGIAKCLQITCQVGRLDRGKSAILYVKSLLWTETFMNKENQNHSYSLKSSASFNIIEFPYKNLPIEDLFNSTLVTTNITWGIQPAPMPVPVWVIILAVLAGLLLLAVLVFVMYRMGFFKRVRPPQEEQEREQLQPHENGEGNSET
For the molecule B5, the binding entry is recorded as “binds”.

B6: guanine nucleotide binding protein, alpha 13 (protein, UniProt P27601 1-377)
chain: MADFLPSRSVLSVCFPGCVLTNGEAEQQRKSKEIDKCLSREKTYVKRLVKILLLGAGESGKSTFLKQMRIIHGQDFDQRAREEFRPTIYSNVIKGMRVLVDAREKLHIPWGDNKNQLHGDKLMAFDTRAPMAAQGMVETRVFLQYLPAIRALWEDSGIQNAYDRRREFQLGESVKYFLDNLDKLGVPDYIPSQQDILLARRPTKGIHEYDFEIKNVPFKMVDVGGQRSERKRWFECFDSVTSILFLVSSSEFDQVLMEDRQTNRLTESLNIFETIVNNRVFSNVSIILFLNKTDLLEEKVQVVSIKDYFLEFEGDPHCLRDVQKFLVECFRGKRRDQQQRPLYHHFTTAINTENIRLVFRDVKDTILHDNLKQLMLQ
For the molecule B6, the binding result is “binds”.
